Assay results taken from PMC8616286.
No constants are given. Whether binding was seen depends on the method and setting. For some assays here: In cells and extracts the contact can be indirect. Some entries that bind do so weakly or less than the wild type. Sequences can lack the tags named with a protein.

Assays:
[1] = biological target: T1, HISTONE … 6 (HDA6), yeast two-hybrid fusion (Arabidopsis thaliana) (UniProt Q9FML2); assay: two-hybrid; Matchmaker GAL4 system 3, yeast AH109; growth on TDO (SD lacking Trp, Leu, His) / TDO with X-alpha-gal, 30 °C; both orientations of AD and BD
T1 sequence: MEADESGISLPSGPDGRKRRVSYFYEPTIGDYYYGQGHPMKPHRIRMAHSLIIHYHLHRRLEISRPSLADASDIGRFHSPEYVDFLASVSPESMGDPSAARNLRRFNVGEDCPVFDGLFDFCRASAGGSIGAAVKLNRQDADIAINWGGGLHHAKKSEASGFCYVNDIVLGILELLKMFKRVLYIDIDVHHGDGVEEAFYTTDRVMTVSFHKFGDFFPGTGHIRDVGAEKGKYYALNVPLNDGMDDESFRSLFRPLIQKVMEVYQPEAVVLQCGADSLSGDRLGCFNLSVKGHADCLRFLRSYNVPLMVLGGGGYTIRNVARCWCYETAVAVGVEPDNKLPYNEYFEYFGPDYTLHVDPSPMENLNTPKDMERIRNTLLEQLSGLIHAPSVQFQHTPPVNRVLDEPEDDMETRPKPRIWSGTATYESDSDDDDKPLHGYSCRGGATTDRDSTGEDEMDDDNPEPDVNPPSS

[2] = biological target: T2, HDA6 fused to the N-terminal part of YFP (YN) (Arabidopsis thaliana) (UniProt Q9FML2); assay: split reporter; BiFC with YN and YC halves of YFP in Arabidopsis protoplasts (PEG transfection); confocal imaging, mCherry with a nuclear localization signal as nuclear marker
T2 sequence: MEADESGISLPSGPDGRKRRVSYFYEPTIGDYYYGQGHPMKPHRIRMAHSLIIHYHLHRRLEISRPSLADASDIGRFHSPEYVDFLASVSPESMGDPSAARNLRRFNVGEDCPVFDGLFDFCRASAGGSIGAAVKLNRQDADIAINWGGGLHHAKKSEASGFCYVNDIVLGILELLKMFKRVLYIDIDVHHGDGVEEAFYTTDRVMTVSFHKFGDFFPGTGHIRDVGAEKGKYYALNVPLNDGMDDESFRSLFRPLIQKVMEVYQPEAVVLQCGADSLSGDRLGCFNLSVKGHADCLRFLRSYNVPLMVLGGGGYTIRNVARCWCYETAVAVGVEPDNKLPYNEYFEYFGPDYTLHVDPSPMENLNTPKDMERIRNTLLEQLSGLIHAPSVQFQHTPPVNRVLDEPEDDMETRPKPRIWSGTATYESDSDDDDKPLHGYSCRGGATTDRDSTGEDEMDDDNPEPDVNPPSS

[3] = biological target: T3, HDA6-GFP (pEAQ-HDA6-GFP), expressed in tobacco leaves (Arabidopsis thaliana) (UniProt Q9FML2); assay: co-IP; co-expression in tobacco leaves by Agrobacterium infiltration (36 h); extract in 50 mM Tris-HCl pH 7.4, 150 mM NaCl, 2 mM MgCl2, 1 mM DTT, 20% glycerol, 1% NP-40; GFP-Trap-A beads 4 °C 4 h; anti-FLAG blot
T3 sequence: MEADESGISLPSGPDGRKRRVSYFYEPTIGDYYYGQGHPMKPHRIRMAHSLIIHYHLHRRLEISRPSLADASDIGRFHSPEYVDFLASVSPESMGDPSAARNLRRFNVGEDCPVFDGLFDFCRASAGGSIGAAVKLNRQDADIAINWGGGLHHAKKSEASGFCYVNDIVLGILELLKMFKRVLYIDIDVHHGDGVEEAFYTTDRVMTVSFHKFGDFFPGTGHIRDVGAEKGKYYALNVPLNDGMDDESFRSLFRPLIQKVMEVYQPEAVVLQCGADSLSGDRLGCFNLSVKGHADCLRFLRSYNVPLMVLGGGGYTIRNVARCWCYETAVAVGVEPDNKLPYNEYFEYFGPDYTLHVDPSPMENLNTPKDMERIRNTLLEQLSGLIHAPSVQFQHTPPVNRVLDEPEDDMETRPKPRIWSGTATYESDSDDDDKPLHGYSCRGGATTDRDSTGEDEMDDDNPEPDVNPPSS

[4] = biological target: T4, GFP-HDA6 (pEAQ-GFP-HDA6), expressed in tobacco leaves (Arabidopsis thaliana) (UniProt Q9FML2); assay: as above
T4 sequence: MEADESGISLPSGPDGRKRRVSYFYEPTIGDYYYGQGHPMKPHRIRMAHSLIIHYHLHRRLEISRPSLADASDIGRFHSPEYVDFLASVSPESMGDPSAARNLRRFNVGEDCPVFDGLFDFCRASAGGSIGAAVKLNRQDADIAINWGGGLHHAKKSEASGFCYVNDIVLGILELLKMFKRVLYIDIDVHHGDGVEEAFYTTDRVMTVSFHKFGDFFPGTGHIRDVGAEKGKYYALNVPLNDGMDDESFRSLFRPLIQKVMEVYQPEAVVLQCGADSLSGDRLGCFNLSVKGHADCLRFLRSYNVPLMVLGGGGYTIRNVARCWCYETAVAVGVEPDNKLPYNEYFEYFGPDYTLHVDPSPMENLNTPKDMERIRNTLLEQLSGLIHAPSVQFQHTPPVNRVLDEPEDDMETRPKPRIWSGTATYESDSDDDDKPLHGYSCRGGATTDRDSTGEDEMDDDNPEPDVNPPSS

[5] = biological target: T5, HDA6-GFP (pro35S:HDA6-GFP), in transgenic Arabidopsis plants (Arabidopsis thaliana) (UniProt Q9FML2); assay: co-IP; transgenic Arabidopsis plants coexpressing 35S:HDA6-GFP and 35S:SIZ1-FLAG; SIZ1-FLAG immunoprecipitated by HDA6-GFP
T5 sequence: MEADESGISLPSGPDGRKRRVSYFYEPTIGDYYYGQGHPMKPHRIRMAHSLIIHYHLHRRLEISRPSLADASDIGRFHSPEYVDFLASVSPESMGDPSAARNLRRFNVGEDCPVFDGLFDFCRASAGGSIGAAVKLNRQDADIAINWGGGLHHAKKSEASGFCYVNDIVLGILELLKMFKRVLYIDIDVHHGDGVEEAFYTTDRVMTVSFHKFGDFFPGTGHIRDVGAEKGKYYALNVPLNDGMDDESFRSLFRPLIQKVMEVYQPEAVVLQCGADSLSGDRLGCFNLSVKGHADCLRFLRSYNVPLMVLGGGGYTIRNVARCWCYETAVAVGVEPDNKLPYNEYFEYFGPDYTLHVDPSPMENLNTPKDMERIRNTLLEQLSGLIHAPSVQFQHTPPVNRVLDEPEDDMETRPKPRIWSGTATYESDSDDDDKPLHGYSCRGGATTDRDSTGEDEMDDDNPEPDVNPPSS

B1: SAP AND MIZ1 DOMAIN-CONTAINING LIGASE1 (SIZ1), yeast two-hybrid fusion (enzyme, UniProt Q680Q4 1-884)
chain: MDLEANCKEKLSYFRIKELKDVLTQLGLSKQGKKQELVDRILTLLSDEQAARLLSKKNTVAKEAVAKLVDDTYRKMQVSGASDLASKGQVSSDTSNLKVKGEPEDPFQPEIKVRCVCGNSLETDSMIQCEDPRCHVWQHVGCVILPDKPMDGNPPLPESFYCEICRLTRADPFWVTVAHPLSPVRLTATTIPNDGASTMQSVERTFQITRADKDLLAKPEYDVQAWCMLLNDKVLFRMQWPQYADLQVNGVPVRAINRPGGQLLGVNGRDDGPIITSCIRDGVNRISLSGGDVRIFCFGVRLVKRRTLQQVLNLIPEEGKGETFEDALARVRRCIGGGGGDDNADSDSDIEVVADFFGVNLRCPMSGSRIKVAGRFLPCVHMGCFDLDVFVELNQRSRKWQCPICLKNYSVEHVIVDPYFNRITSKMKHCDEEVTEIEVKPDGSWRVKFKRESERRELGELSQWHAPDGSLCPSAVDIKRKMEMLPVKQEGYSDGPAPLKLGIRKNRNGIWEVSKPNTNGLSSSNRQEKVGYQEKNIIPMSSSATGSGRDGDDASVNQDAIGTFDFVANGMELDSISMNVDSGYNFPDRNQSGEGGNNEVIVLSDSDDENDLVITPGPAYSGCQTDGGLTFPLNPPGIINSYNEDPHSIAGGSSGLGLFNDDDEFDTPLWSFPSETPEAPGFQLFRSDADVSGGLVGLHHHSPLNCSPEINGGYTMAPETSMASVPVVPGSTGRSEANDGLVDNPLAFGRDDPSLQIFLPTKPDASAQSGFKNQADMSNGLRSEDWISLRLGDSASGNHGDPATTNGINSSHQMSTREGSMDTTTETASLLLGMNDSRQDKAKKQRSDNPFSFPRQKRSNNEQDHQTRHRSLNKICIILCAGKN
binding [1]: binds

B2: SIZ1 fused to the C-terminal part of YFP (YC) (enzyme, UniProt Q680Q4 1-884)
chain: MDLEANCKEKLSYFRIKELKDVLTQLGLSKQGKKQELVDRILTLLSDEQAARLLSKKNTVAKEAVAKLVDDTYRKMQVSGASDLASKGQVSSDTSNLKVKGEPEDPFQPEIKVRCVCGNSLETDSMIQCEDPRCHVWQHVGCVILPDKPMDGNPPLPESFYCEICRLTRADPFWVTVAHPLSPVRLTATTIPNDGASTMQSVERTFQITRADKDLLAKPEYDVQAWCMLLNDKVLFRMQWPQYADLQVNGVPVRAINRPGGQLLGVNGRDDGPIITSCIRDGVNRISLSGGDVRIFCFGVRLVKRRTLQQVLNLIPEEGKGETFEDALARVRRCIGGGGGDDNADSDSDIEVVADFFGVNLRCPMSGSRIKVAGRFLPCVHMGCFDLDVFVELNQRSRKWQCPICLKNYSVEHVIVDPYFNRITSKMKHCDEEVTEIEVKPDGSWRVKFKRESERRELGELSQWHAPDGSLCPSAVDIKRKMEMLPVKQEGYSDGPAPLKLGIRKNRNGIWEVSKPNTNGLSSSNRQEKVGYQEKNIIPMSSSATGSGRDGDDASVNQDAIGTFDFVANGMELDSISMNVDSGYNFPDRNQSGEGGNNEVIVLSDSDDENDLVITPGPAYSGCQTDGGLTFPLNPPGIINSYNEDPHSIAGGSSGLGLFNDDDEFDTPLWSFPSETPEAPGFQLFRSDADVSGGLVGLHHHSPLNCSPEINGGYTMAPETSMASVPVVPGSTGRSEANDGLVDNPLAFGRDDPSLQIFLPTKPDASAQSGFKNQADMSNGLRSEDWISLRLGDSASGNHGDPATTNGINSSHQMSTREGSMDTTTETASLLLGMNDSRQDKAKKQRSDNPFSFPRQKRSNNEQDHQTRHRSLNKICIILCAGKN
binding [2]: binds

B3: SIZ1-FLAG (pHB-SIZ1-FLAG), expressed in tobacco leaves (enzyme, UniProt Q680Q4 1-884)
chain: MDLEANCKEKLSYFRIKELKDVLTQLGLSKQGKKQELVDRILTLLSDEQAARLLSKKNTVAKEAVAKLVDDTYRKMQVSGASDLASKGQVSSDTSNLKVKGEPEDPFQPEIKVRCVCGNSLETDSMIQCEDPRCHVWQHVGCVILPDKPMDGNPPLPESFYCEICRLTRADPFWVTVAHPLSPVRLTATTIPNDGASTMQSVERTFQITRADKDLLAKPEYDVQAWCMLLNDKVLFRMQWPQYADLQVNGVPVRAINRPGGQLLGVNGRDDGPIITSCIRDGVNRISLSGGDVRIFCFGVRLVKRRTLQQVLNLIPEEGKGETFEDALARVRRCIGGGGGDDNADSDSDIEVVADFFGVNLRCPMSGSRIKVAGRFLPCVHMGCFDLDVFVELNQRSRKWQCPICLKNYSVEHVIVDPYFNRITSKMKHCDEEVTEIEVKPDGSWRVKFKRESERRELGELSQWHAPDGSLCPSAVDIKRKMEMLPVKQEGYSDGPAPLKLGIRKNRNGIWEVSKPNTNGLSSSNRQEKVGYQEKNIIPMSSSATGSGRDGDDASVNQDAIGTFDFVANGMELDSISMNVDSGYNFPDRNQSGEGGNNEVIVLSDSDDENDLVITPGPAYSGCQTDGGLTFPLNPPGIINSYNEDPHSIAGGSSGLGLFNDDDEFDTPLWSFPSETPEAPGFQLFRSDADVSGGLVGLHHHSPLNCSPEINGGYTMAPETSMASVPVVPGSTGRSEANDGLVDNPLAFGRDDPSLQIFLPTKPDASAQSGFKNQADMSNGLRSEDWISLRLGDSASGNHGDPATTNGINSSHQMSTREGSMDTTTETASLLLGMNDSRQDKAKKQRSDNPFSFPRQKRSNNEQDHQTRHRSLNKICIILCAGKN
binding [3]: binds | binding [4]: binds

B4: SIZ1-FLAG (pro35S:SIZ1-FLAG), in transgenic Arabidopsis plants (enzyme, UniProt Q680Q4 1-884)
chain: MDLEANCKEKLSYFRIKELKDVLTQLGLSKQGKKQELVDRILTLLSDEQAARLLSKKNTVAKEAVAKLVDDTYRKMQVSGASDLASKGQVSSDTSNLKVKGEPEDPFQPEIKVRCVCGNSLETDSMIQCEDPRCHVWQHVGCVILPDKPMDGNPPLPESFYCEICRLTRADPFWVTVAHPLSPVRLTATTIPNDGASTMQSVERTFQITRADKDLLAKPEYDVQAWCMLLNDKVLFRMQWPQYADLQVNGVPVRAINRPGGQLLGVNGRDDGPIITSCIRDGVNRISLSGGDVRIFCFGVRLVKRRTLQQVLNLIPEEGKGETFEDALARVRRCIGGGGGDDNADSDSDIEVVADFFGVNLRCPMSGSRIKVAGRFLPCVHMGCFDLDVFVELNQRSRKWQCPICLKNYSVEHVIVDPYFNRITSKMKHCDEEVTEIEVKPDGSWRVKFKRESERRELGELSQWHAPDGSLCPSAVDIKRKMEMLPVKQEGYSDGPAPLKLGIRKNRNGIWEVSKPNTNGLSSSNRQEKVGYQEKNIIPMSSSATGSGRDGDDASVNQDAIGTFDFVANGMELDSISMNVDSGYNFPDRNQSGEGGNNEVIVLSDSDDENDLVITPGPAYSGCQTDGGLTFPLNPPGIINSYNEDPHSIAGGSSGLGLFNDDDEFDTPLWSFPSETPEAPGFQLFRSDADVSGGLVGLHHHSPLNCSPEINGGYTMAPETSMASVPVVPGSTGRSEANDGLVDNPLAFGRDDPSLQIFLPTKPDASAQSGFKNQADMSNGLRSEDWISLRLGDSASGNHGDPATTNGINSSHQMSTREGSMDTTTETASLLLGMNDSRQDKAKKQRSDNPFSFPRQKRSNNEQDHQTRHRSLNKICIILCAGKN
binding [5]: binds
